Results are given in words; binding and its absence hold for the method and conditions named. In cells and extracts the contact can be indirect. Here binding means that the protein was enriched with, or labelled near, the bait; the list need not be complete. No binding means not detected with the bait.

Sequences of proteins named here, by UniProt entry; tags and fusion partners are left off.
UniProt A4D1E9: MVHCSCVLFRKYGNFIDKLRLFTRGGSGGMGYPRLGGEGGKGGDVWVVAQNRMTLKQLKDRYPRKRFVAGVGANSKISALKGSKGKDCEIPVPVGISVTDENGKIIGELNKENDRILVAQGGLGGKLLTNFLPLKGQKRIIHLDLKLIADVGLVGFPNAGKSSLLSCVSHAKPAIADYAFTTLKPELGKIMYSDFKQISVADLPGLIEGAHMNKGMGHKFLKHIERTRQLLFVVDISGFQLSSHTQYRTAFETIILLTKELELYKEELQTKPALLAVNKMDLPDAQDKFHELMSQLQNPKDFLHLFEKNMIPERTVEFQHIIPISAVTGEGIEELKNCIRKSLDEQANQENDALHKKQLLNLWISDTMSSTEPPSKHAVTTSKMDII

This experiment deals with GTPBP10 with C-terminal Strep-Flag tag (human) (UniProt A4D1E9). The experiment in a line: affinity purification with mass spectrometry; Flag-tagged MALSU1 or GTPBP10 as bait, cleared HEK293 lysate on anti-Flag beads 2 h, wash 20 mM HEPES pH 7.4, 150 mM KOAc, 5 mM Mg(OAc)2, 1 mM DTT, elution with 3xFlag peptide; eluate analysed by mass spectrometry.

B1: MTG2 (protein, UniProt Q9H4K7 1-406)
chain: MAPARCFSARLRTVFQGVGHWALSTWAGLKPSRLLPQRASPRLLSVGRADLAKHQELPGKKLLSEKKLKRYFVDYRRVLVCGGNGGAGASCFHSEPRKEFGGPDGGDGGNGGHVILRVDQQVKSLSSVLSRYQGFSGEDGGSKNCFGRSGAVLYIRVPVGTLVKEGGRVVADLSCVGDEYIAALGGAGGKGNRFFLANNNRAPVTCTPGQPGQQRVLHLELKTVAHAGMVGFPNAGKSSLLRAISNARPAVASYPFTTLKPHVGIVHYEGHLQIAVADIPGIIRGAHQNRGLGSAFLRHIERCRFLLFVVDLSQPEPWTQVDDLKYELEMYEKGLSARPHAIVANKIDLPEAQANLSQLRDHLGQEVIVLSALTGENLEQLLLHLKVLYDAYAEAELGQGRQPLRW
Take B1: the binding result is “no binding”.

(Values after article PMC8316566.)
